Measurements reported in publication PMC5338318.
Results are given in words; binding and its absence hold for the method and conditions named. For some assays here: Binding seen in cells or lysates may run through a third protein. Some binding calls cover weakened binding; strength is not graded here. Sequences can lack the tags named with a protein.

What was measured:
[1] = biological target: T1, RUG3-YFP^N (RCC1/UVR8/GEF-Like 3 fused to the N-terminal half of YFP) (Arabidopsis thaliana) (UniProt Q9FJG9); experiment: split reporter; BiFC; RUG3-YFP^N and ATM-N-YFP^C co-expressed in N. benthamiana leaves by Agrobacterium injection; YFP fluorescence in epidermal cells after 2 days, confocal microscope; MitoTracker staining
T1 sequence: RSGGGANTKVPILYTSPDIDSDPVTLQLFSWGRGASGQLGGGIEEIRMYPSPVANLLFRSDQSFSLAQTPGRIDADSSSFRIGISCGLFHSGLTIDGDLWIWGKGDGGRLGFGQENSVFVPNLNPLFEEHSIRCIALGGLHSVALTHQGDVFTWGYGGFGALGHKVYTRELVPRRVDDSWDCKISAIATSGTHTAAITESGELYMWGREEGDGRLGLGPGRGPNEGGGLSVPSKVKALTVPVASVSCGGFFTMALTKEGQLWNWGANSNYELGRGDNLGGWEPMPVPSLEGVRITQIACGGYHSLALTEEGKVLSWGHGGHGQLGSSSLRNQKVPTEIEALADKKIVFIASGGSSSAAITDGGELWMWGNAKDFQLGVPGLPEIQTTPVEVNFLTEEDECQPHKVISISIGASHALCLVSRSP

[2] = biological target: T2, GST-RUG3 fusion protein (Arabidopsis thaliana) (UniProt Q9FJG9); experiment: pull-down; equal amounts of purified MBP-ATM-N added to tubes with GSH-Sepharose resin plus GST or GST-RUG3; detected with anti-MBP antibodies; both purified
T2 sequence: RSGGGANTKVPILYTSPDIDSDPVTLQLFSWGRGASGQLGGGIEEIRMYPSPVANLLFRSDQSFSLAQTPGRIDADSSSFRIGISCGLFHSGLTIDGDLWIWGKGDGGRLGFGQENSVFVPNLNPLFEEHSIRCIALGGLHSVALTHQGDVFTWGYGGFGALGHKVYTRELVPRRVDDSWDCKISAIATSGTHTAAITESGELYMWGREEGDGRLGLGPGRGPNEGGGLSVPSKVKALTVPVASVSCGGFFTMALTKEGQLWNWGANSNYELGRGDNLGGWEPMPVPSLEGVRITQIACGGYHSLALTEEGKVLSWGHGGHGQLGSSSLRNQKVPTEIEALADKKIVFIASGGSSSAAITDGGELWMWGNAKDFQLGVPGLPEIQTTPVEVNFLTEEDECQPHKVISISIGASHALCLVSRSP

Binder | binding [1] | binding [2]
ATM-N-YFP^C (N-terminal region of ataxia telangiectasia mutated fused to the C-terminal half of YFP) (domain or fragment, UniProt Q9M3G7 1-300) MKLQNPDKKTLREGFSQESSVVALDSGVLAMSGLKCDGKFPVKDVLMEEGGDKVRKIQVSGGNISLVVDFSGARTSSNNFFESNASCVNENLVKGNGYREDETQEFLVGNLVWVMTKYKKWWPGEVVDFKADAKESFMVRSIGQSHLVSWFASSKLKPFKESFEQVLNQRNDNGFFDALQKAMSLLSNSLKLDMTCSCIADGNGIVSAQNITTRKNKPLILREFSVDRLEPKEFVTQLKNIAKCVLNAGVLESTVMQSQLSAFYTLFGHKQIPMAQLHENEGRKSFTAKMSDSKFIGSPS | binds | –
MBP-ATM-N (N-terminus of ataxia telangiectasia mutated fused to MBP) (domain or fragment, UniProt Q9M3G7 1-300) MKLQNPDKKTLREGFSQESSVVALDSGVLAMSGLKCDGKFPVKDVLMEEGGDKVRKIQVSGGNISLVVDFSGARTSSNNFFESNASCVNENLVKGNGYREDETQEFLVGNLVWVMTKYKKWWPGEVVDFKADAKESFMVRSIGQSHLVSWFASSKLKPFKESFEQVLNQRNDNGFFDALQKAMSLLSNSLKLDMTCSCIADGNGIVSAQNITTRKNKPLILREFSVDRLEPKEFVTQLKNIAKCVLNAGVLESTVMQSQLSAFYTLFGHKQIPMAQLHENEGRKSFTAKMSDSKFIGSPS | – | binds
